Experimental data as given in PMC9917250.
No constants are given. Whether binding was seen depends on the method and setting. Binding seen in cells or lysates may run through a third protein. Some results given as binding are weak or reduced against the parent protein; the word gives no strength.

The chains behind the UniProt entries cited, without tags or fusion partners.
UniProt Q13546: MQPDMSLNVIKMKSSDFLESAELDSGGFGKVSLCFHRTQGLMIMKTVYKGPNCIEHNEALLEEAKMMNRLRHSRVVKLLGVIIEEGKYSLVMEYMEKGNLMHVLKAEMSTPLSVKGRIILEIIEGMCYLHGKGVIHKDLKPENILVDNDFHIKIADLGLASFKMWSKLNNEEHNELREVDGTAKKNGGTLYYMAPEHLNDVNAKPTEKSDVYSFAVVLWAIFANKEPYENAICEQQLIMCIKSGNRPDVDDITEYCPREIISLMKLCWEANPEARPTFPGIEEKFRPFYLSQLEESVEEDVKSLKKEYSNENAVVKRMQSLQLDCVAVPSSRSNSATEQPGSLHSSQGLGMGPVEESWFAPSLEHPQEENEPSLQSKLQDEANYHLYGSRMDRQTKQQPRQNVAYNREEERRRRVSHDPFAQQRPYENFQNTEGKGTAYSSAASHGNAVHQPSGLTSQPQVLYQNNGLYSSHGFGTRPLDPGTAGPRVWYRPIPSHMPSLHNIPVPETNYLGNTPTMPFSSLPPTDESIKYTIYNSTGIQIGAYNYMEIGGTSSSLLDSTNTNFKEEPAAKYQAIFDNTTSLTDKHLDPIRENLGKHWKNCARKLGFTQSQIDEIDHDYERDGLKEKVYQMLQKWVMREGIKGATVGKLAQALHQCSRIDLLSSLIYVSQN
UniProt P42224: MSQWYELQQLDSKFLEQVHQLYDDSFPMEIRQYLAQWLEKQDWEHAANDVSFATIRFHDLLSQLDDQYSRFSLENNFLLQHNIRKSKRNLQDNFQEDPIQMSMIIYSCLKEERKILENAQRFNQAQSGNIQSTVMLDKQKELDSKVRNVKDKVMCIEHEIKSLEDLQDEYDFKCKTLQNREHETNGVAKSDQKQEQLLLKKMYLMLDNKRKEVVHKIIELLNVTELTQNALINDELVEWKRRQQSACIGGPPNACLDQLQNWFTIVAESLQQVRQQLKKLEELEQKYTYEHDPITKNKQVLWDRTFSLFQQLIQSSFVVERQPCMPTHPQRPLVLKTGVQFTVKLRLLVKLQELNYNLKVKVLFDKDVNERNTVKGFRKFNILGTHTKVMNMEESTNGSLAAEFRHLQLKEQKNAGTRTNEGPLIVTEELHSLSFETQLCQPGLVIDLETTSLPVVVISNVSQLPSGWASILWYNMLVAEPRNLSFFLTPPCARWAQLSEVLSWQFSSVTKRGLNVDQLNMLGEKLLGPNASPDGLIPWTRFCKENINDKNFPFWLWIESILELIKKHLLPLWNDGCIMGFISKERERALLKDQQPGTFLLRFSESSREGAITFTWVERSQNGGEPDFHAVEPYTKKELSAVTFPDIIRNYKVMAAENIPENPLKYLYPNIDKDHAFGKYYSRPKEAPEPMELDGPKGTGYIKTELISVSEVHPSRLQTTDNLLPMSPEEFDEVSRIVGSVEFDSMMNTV
UniProt P40763: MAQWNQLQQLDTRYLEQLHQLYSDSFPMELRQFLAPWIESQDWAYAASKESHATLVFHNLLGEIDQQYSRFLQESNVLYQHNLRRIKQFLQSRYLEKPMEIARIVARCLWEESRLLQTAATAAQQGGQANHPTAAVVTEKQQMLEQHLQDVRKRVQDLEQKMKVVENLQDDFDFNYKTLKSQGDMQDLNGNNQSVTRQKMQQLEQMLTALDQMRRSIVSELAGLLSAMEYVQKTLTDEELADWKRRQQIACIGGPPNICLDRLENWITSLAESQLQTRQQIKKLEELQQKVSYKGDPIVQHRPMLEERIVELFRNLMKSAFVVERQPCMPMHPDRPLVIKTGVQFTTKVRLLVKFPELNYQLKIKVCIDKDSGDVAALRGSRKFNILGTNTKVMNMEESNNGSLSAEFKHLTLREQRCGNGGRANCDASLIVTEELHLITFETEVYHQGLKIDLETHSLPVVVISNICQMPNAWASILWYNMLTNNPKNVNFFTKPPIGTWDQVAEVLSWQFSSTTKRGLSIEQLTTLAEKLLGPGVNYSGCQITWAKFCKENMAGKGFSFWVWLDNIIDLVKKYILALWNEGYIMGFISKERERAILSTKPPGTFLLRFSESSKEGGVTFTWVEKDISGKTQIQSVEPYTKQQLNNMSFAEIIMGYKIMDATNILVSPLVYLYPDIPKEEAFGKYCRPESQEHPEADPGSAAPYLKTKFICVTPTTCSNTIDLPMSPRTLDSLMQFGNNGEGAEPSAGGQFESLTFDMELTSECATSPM

Columns and labels:
Assay in all cases: co-IP; procedure according to ref. 68; antibodies the same as for Western blotting; which protein was precipitated not given
[1] = molecular target: CCPG1 (cell cycle progression gene 1) (human (endogenous in KGN)) (UniProt Q9ULG6)
[2] = molecular target: ripk1 (human (endogenous in KGN)) (UniProt Q13546)
[3] = molecular target: STAT1 (human (endogenous in KGN)) (UniProt P42224)

| binding [2] | Molecule | also measured |
| --- | --- | --- |
|  | MAP1LC3A (from UniProt Q9H492 1-121) | binding [1]: binds |
| binds | STAT1 (from UniProt P42224 1-750) |  |
| binds | STAT3 (from UniProt P40763 1-770) |  |
|  | CCPG1 (cell cycle progression gene 1) (protein, UniProt Q9ULG6 1-757) MSENSSDSDSSCGWTVISHEGSDIEMLNSVTPTDSCEPAPECSSLEQEELQALQIEQGESSQNGTVLMEETAYPALEETSSTIEAEEQKIPEDSIYIGTASDDSDIVTLEPPKLEEIGNQEVVIVEEAQSSEDFNMGSSSSSQYTFCQPETVFSSQPSDDESSSDETSNQPSPAFRRRRARKKTVSASESEDRLVAEQETEPSKELSKRQFSSGLNKCVILALVIAISMGFGHFYGTIQIQKRQQLVRKIHEDELNDMKDYLSQCQQEQESFIDYKSLKENLARCWTLTEAEKMSFETQKTNLATENQYLRVSLEKEEKALSSLQEELNKLREQIRILEDKGTSTELVKENQKLKQHLEEEKQKKHSFLSQRETLLTEAKMLKRELERERLVTTALRGELQQLSGSQLHGKSDSPNVYTEKKEIAILRERLTELERKLTFEQQRSDLWERLYVEAKDQNGKQGTDGKKKGGRGSHRAKNKSKETFLGSVKETFDAMKNSTKEFVRHHKEKIKQAKEAVKENLKKFSDSVKSTFRHFKDTTKNIFDEKGNKRFGATKEAAEKPRTVFSDYLHPQYKAPTENHHNRGPTMQNDGRKEKPVHFKEFRKNTNSKKCSPGHDCRENSHSFRKACSGVFDCAQQESMSLFNTVVNPIRMDEFRQIIQRYMLKELDTFCHWNELDQFINKFFLNGVFIHDQKLFTDFVNDVKDYLRNMKEYEVDNDGVFEKLDEYIYRHFFGHTFSPPYGPRSVYIKPCHYSSL | binding [3]: binds |
